Test results reported in PubChem BioAssay AID1688 (National Center for Advancing Translational Sciences (NCATS), 2009).
Screen size: about 220,000 compounds; about 2,400 (1.1%) were called active. The inconclusive results got no clear call from the source; some entries with a clear call stand among them for comparison. Calls follow the shape of the dose curve; as a rule, active = well fitted inhibition curve with a large enough effect; inconclusive = small, poorly fitted or top-dose-only effect, or effect the other way; inactive = no such curve, though single readings can be large or run the other way. Potencies beside an inconclusive call are fits to weak or partial responses and may not hold up. More than one record can exist for a structure, and the calls need not agree.

Test: qHTS Multiplex Assay to Identify Dual Action Probes in a Cell Model of Huntington: Aggregate Formation (GFP); also: nearly all actives have a fitted effect of over 60% in size
Details: PC12 HttQ103-GFP aggregates, Acumen cytometry, 40 h; activity change, negative = inhibition: at 46.1 µM (top of the series) unless noted
In short: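 Using laser scanning cytometry, GFP-positive aggregates were counted after lysis of PC12 cells induced with 100 nM tebufenozide to express HTT exon 1 Q103–GFP. Compounds were tested in titration.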
% is scaled to controls: 0 for no effect and ±100 for the full control effect; potency is read from the fitted curve at half-maximal effect.

SMILES	Potency	activity change, negative = inhibition
CCc1ccc(/C=C2\Oc3cc(OS(C)(=O)=O)ccc3C2=O)cc1	inconclusive: 20 µM [inhibitor, partial curve, poor fit]	
Cc1ccc(NS(=O)(=O)c2cc(C(=O)Nc3cccc(N(C)S(C)(=O)=O)c3)ccc2C)c(C)c1	inconclusive: 35.5 µM [inhibitor, single point]	
Cc1ccc(CNC(=O)CCC2CCCN(C(=O)c3ccc4c(c3)OCO4)C2)o1 (stereo unspecified)	inconclusive: 20 µM [activator, single point]	
CCOc1ccc(NC(=O)CSc2nnc(Cc3cccn3C)n2-c2ccc(F)cc2)cc1	inconclusive: 7.08 µM [activator, partial curve]	
CCCC(O)(CCC)C(=O)NN(C(=O)CCl)c1cccc(C)c1	inconclusive: 3.55 µM [inhibitor, single point]	
CC(C)N1CCC2(CC1)N=C(c1ccc3c(c1)OCO3)CC(c1cc(Cl)ccc1O)N2 (stereo unspecified)	inconclusive: 31.6 µM [activator, single point]	
COc1ccccc1NC(=O)c1ccc(NC(=O)c2cc3c(s2)CCC3)cc1	inconclusive: 35.5 µM [inhibitor, single point]	
COc1ccc(-c2cc(CNC(=O)CCl)on2)cc1	active: 17.8 µM	
OC(CNc1ccccc1)COc1ccc(OCC(O)CNc2ccccc2)cc1 (stereo unspecified)	active: 11.2 µM	
CCOC(=O)C1(CC2CC2)CCN(Cc2ccc(OC)cc2F)CC1	inconclusive: 5.62 µM [inhibitor, single point]	
COc1ccc(Oc2ccc(/C=C/C(=O)c3ccc(O)cc3)cc2[N+](=O)[O-])cc1	active: 12.6 µM	
C#CC1(O)CC(C)N(C)C(C)C1 (stereo unspecified)		inactive: -4.04%
CCC1SC(N)=NC1=O (stereo unspecified)		inactive: 3%
COc1ccccc1OCCCn1c(C)c(C#N)c2ccccc21	inconclusive: 31.6 µM [inhibitor, single point]	
CCCC1=[N+](CC)CCn2c(C)ccc21	active: 11.2 µM	
CCN(CC)C(=O)CSc1ncnc2c1nnn2-c1ccc(OC)cc1	inconclusive: 0.891 µM [activator, full curve, poor fit]	
Cn1c(-c2ccc3nc(N)sc3c2)nc2cc(N)ccc21	inconclusive: 0.562 µM [activator, full curve, poor fit]	
CCCN(CCC)CCCNC(=O)CNC(=O)c1nn(-c2ccc(OC)cc2)c(=O)c2ccccc12	inconclusive: 0.501 µM [activator, full curve, poor fit]	
O=C(NNc1c2ccccc2nc2ccccc12)c1ccc(O)cc1O	active: 10 µM	
O=c1c2c3c(sc2n(CCN2CCCC2)c(=O)n1Cc1ccco1)CCCCC3	inconclusive: 35.5 µM [inhibitor, single point]	
COc1ccccc1OCC(=O)O	inactive	
O=C1c2ccccc2C(=O)N1Cc1cc(-c2ccccc2Cl)no1	inconclusive: 25.1 µM [inhibitor, single point]	
Cc1nn(C)cc1CN(C)C(=O)c1nn2c(c1Br)NC(c1cccs1)CC2C(F)(F)F (stereo unspecified)	inconclusive: 1.78 µM [activator, full curve, poor fit]	
COCC(=O)O[C@]1(CCN(C)CCCc2nc3ccccc3[nH]2)CCc2cc(F)ccc2[C@@H]1C(C)C	active: 7.94 µM	

SMILES	Potency	activity change, negative = inhibition
O=S(=O)(NC1CCCCC1)c1ccc(Cl)s1	inconclusive: 35.5 µM [inhibitor, single point]	
Cc1ccc(-c2nc3c(c(=O)[nH]c(=O)n3Cc3ccccc3)n2C)o1		inactive: -0.723%
Cc1ccc(OCC(O)Cn2c(=N)n(Cc3ccccc3)c3ccccc32)cc1 (stereo unspecified)	inconclusive: 10 µM [inhibitor, partial curve]	
CC(C)(C)NS(=O)(=O)c1cccc(S(=O)(=O)c2cccc(S(=O)(=O)NC(C)(C)C)c2)c1		inactive: -11%
Cc1cc2c(cc1C)NC(c1c(C)n(C)n(-c3ccccc3)c1=O)C1=C(CC(C)(C)CC1=O)N2 (stereo unspecified)		inactive: -6.17%
O=c1cc(-c2ccccc2)nc(SCc2ccc(F)cc2)[nH]1	inconclusive: 35.5 µM [inhibitor, single point]	
Cc1nc(N2CCN(C(=O)COc3ccccc3)CC2)c2c(C)c(C)sc2n1		inactive: -14.5%
COc1ccc(C2CC(=O)Nc3sc(=N)c4c(N)c(C#N)c(N)nc4c32)cc1OC (stereo unspecified)	inconclusive: 10 µM [activator, partial curve]	
O=C(COc1cccc(NC(=O)c2cccc([N+](=O)[O-])c2)c1)c1ccc(Br)cc1	inconclusive: 28.2 µM [inhibitor, single point]	
Cc1csc(NC(=O)c2ccc(S(=O)(=O)N(C)c3ccccc3)cc2)n1	inconclusive: 25.1 µM [inhibitor, single point]	
O=C(Nc1nc2ccccc2[nH]1)c1ccccc1F		inactive: -11.9%
CN(c1cccc(NC(=O)CN(c2cccc(Cl)c2)S(=O)(=O)c2ccccc2)c1)S(C)(=O)=O	inconclusive: 4.47 µM [inhibitor, single point]	
CCOC(=O)c1ccc(/C=C2/C=C(c3ccccc3)N(c3ccc(Cl)c(C(=O)O)c3)C2=O)cc1		inactive: -0.295%
CCOC(=O)c1ccc(NC(=O)N2CCN(c3ccccn3)CC2)cc1	active: 0.562 µM	
CCSc1nc(-c2ccccc2)nc(C(Cl)Cl)n1	active: 10 µM	
COc1ccc(-n2c(Cc3cccn3C)nnc2SCC(=O)Nc2ccc(C)c(Cl)c2)cc1	inconclusive: 1.26 µM [activator, full curve, poor fit]	
C/C(=N\NC(=O)C(=O)Nc1cccc(C(F)(F)F)c1)c1ccc(Cl)s1	inconclusive: 1.12 µM [inhibitor, full curve, poor fit]	
Cc1cccc(C(P(=O)(c2ccccc2)c2ccccc2)P(=O)(c2ccccc2)c2ccccc2)n1	inconclusive: 12.6 µM [activator, single point]	
Cc1cc(Nc2ccc(Cl)cc2)nc(N2CCOCC2)n1		inactive: -1.57% [at 9.22 µM]
c1ccc(CSc2nnc(-c3ccncc3)o2)cc1	inconclusive: 0.708 µM [inhibitor, partial curve]	
COC(=O)c1[nH]c2ccc(Cl)cc2c1NC(=O)CN1CCc2cc(OC)c(OC)cc2C1	inconclusive: 0.562 µM [activator, full curve, poor fit]	
CC1CCN(C2CCN(S(=O)(=O)c3ccc(F)cc3)CC2)CC1	inconclusive: 35.5 µM [inhibitor, single point]	
COc1ccccc1CNC(=O)/C=C/c1ccc(Br)o1		inactive: -12%
CC(=O)c1c(O)c2ccccc2n(C(C)C)c1=O	active: 12.6 µM	

SMILES	Potency	activity change, negative = inhibition
COc1ccc(OC)c(C2CC(=O)c3c([nH]c(C(=O)OCC4CCCO4)c3C)C2)c1 (stereo unspecified)		inactive: -15.3%
c1ccc(CNCCNCc2ccccc2)cc1		inactive: 27.4%
O=C1/C(=C\c2ccc(-c3ccccc3[N+](=O)[O-])o2)C(c2ccccc2)=NN1c1ccccc1	inconclusive: 35.5 µM [inhibitor, single point]	
O=C(O)c1ccc(NCc2ccc(Br)cc2)cc1	inconclusive: 3.16 µM [inhibitor, single point]	
CN(C)c1ccc(P(=O)(OCc2ccccc2)C(O)c2ccccc2)cc1 (stereo unspecified)		inactive: -23% [at 9.22 µM]
COc1cccc(/C=N/NC(=O)CSc2nnc(C)n2-c2ccccc2)c1O	active: 7.94 µM	
CCSc1ncc(/C=N/Nc2ccc(Cl)cc2)n1C	inconclusive: 35.5 µM [inhibitor, single point]	
O=C(O)c1ccc(NC(CSCc2ccc(F)cc2)C(=O)O)c([N+](=O)[O-])c1 (stereo unspecified)		inactive: 2.06%
Cn1nnnc1SCC(=O)N1c2ccccc2Sc2ccccc21		inactive: -2.12%
O=C1CCCc2c1sc1nc3n(c(=O)c21)CCCCC3		inactive: 20.7%
Cc1ccc(CNc2nc(C)nc3sc4c(c23)CCC4)cc1	inconclusive: 7.08 µM [inhibitor, partial curve]	
O=C(CCCCCN1C(=O)c2ccccc2C1=O)NC1CCCC1		inactive: 0.493%
CC(C)c1nnc(NC(=O)CCC(=O)NCc2cccs2)s1	inconclusive: 0.794 µM [inhibitor, single point]	
O=C(NNC(=S)NC(=O)c1cccs1)c1ccc(NC(=O)c2ccccc2)cc1	inconclusive: 5.01 µM [inhibitor, partial curve]	
CN(C)c1cc(=O)n2c(n1)SCCC2	inconclusive: 12.6 µM [activator, partial curve, poor fit]	
COc1ccc2c(CC(=O)Nc3c(C)n(C)n(-c4ccccc4)c3=O)coc2c1	inconclusive: 3.55 µM [activator, single point]	
CCOC(=O)NC(=O)CSc1nc(C)cc(C(F)(F)F)c1C#N	active: 10 µM	
O=C(O)Cn1cc(/C=C/[N+](=O)[O-])c2ccccc21		inactive: 0.35%
COCCCN1C(=O)C(=O)/C(=C(/O)c2ccc(C)cc2)C1/C=C/c1ccccc1 (stereo unspecified)	inconclusive: 35.5 µM [inhibitor, single point]	
COc1ccc(S(=O)(=O)Nc2ccc(F)cc2)cc1N(C)S(=O)(=O)c1ccc(Cl)cc1	inconclusive: 14.1 µM [inhibitor, single point]	
O=C(NNC(=O)c1cc(OCC(F)(F)F)ccc1OCC(F)(F)F)c1ccc(Cl)c(Cl)c1	inconclusive: 35.5 µM [inhibitor, single point]	
O=C(Cn1c(CN2CCCCC2)nc2ccccc2c1=O)Nc1ccccc1	inconclusive: 1.26 µM [activator, single point]	
N#CCC(=O)NCCCOC(=O)Nc1ccc(Cl)c(Cl)c1	inconclusive: 35.5 µM [inhibitor, single point]	

Copied from the results shown, 5 compounds:
SMILES	Potency	activity change, negative = inhibition
CN(C)c1ccc(P(=O)(OCc2ccccc2)C(O)c2ccccc2)cc1 (stereo unspecified)		inactive: -23% [at 9.22 µM]
COc1cccc(/C=N/NC(=O)CSc2nnc(C)n2-c2ccccc2)c1O	active: 7.94 µM	
CCSc1ncc(/C=N/Nc2ccc(Cl)cc2)n1C	inconclusive: 35.5 µM [inhibitor, single point]	
O=C(O)c1ccc(NC(CSCc2ccc(F)cc2)C(=O)O)c([N+](=O)[O-])c1 (stereo unspecified)		inactive: 2.06%
Cn1nnnc1SCC(=O)N1c2ccccc2Sc2ccccc21		inactive: -2.12%
